# The supplement of paper PMC12578635
# ± gives the standard deviation of the averaged measurements. Some of the results follow. Most values come without repeats; read them as rough.
# Tested on: RAW 264.7 macrophages infected with S. aureus JE2-lux
# Assay: host macrophage viability (CellTiter-Fluor) relative to DMSO vehicle; higher = more viable host cells
# Settings: 10 µM; treatment time 4 h; gentamicin 50 µg/ml
row,SMILES,host macrophage viability
1,Cc1ccc(NCc2nc3c([nH]2)c(=O)n(C)c(=O)n3C)cc1,100%
2,COc1ccc(NC(=O)c2ncoc2-c2ccc(OC)c(OC)c2)c(OC)n1,106%
3,CN(C)S(=O)(=O)c1ccc(C(=O)NNC(=O)c2ccc3c(c2)CCCC3)cc1,105%
4,O=C(NCC1COc2ccccc2O1)C(=O)c1cn(CC(=O)N2CCCCC2)c2ccccc12 (stereo unspecified),99.2%
5,Clc1ccccc1-n1cc(-c2ccccc2)c2c(N3CCCCC3)ncnc21,120%
6,COc1ccc(NC(=O)CSc2ncnc3ccccc23)cc1OC,116 ± 3.9%
7,CCOC(=O)c1cccc(NC(=O)CCCc2nc3cccnc3n2Cc2ccc(C)cc2)c1,98%
8,COc1ccc(CNC(=O)CSc2nc3ccc(C(C)C)cc3cc2C#N)cc1,113%
9,CCc1nnc2ccc(C(=O)N3CCN(CC)CC3)cn12,131%
10,CCn1c(=O)[nH]c2cc(-c3noc(COc4cccc(C)c4)n3)ccc21,116%
11,CCCC(=O)N1CCN(c2c(C)n(C)c(=O)n(C)c2=O)CC1,131%
12,Cc1ccc(S(=O)(=O)Nc2ccc(N3CCn4c(nc5ccccc54)C3)cc2C)cc1,142%
13,Cn1c(=O)c2c(ncn2CC(=O)c2ccc([N+](=O)[O-])cc2)n(C)c1=O,122%
14,N#Cc1c(NC(=O)c2ccc(C(=O)Nc3sc4c(c3C#N)CCCC4)s2)sc2c1CCCC2,114%
15,c1ccc(-c2oc3ncnc(N4CCN(Cc5ccc6c(c5)OCO6)CC4)c3c2-c2ccccc2)cc1,113%
16,Cc1nn(-c2ccc(-c3noc(C4CC4)n3)cc2)cc1C(=O)N1CCn2c1nc1ccccc12,125%
17,COc1cc([N+](=O)[O-])cc2sc(NC(=O)CSc3ccc(Cl)cc3)nc12,106%
18,Cc1nn(C(=O)c2cccnc2)c(C)c1Sc1ccccc1[N+](=O)[O-],101%
19,COc1cc(NC(=O)C2(C)CCCO2)ccc1NC(=O)CN1CCOCC1 (stereo unspecified),116%
20,Cc1cc(-c2cn[nH]c2C2CCN(C(=O)c3ccncc3)CC2)on1,128%
21,O=C(NC1CCCc2ccccc21)c1cc2n(n1)CCCN(Cc1ccccc1)C2=O (stereo unspecified),99.3%
22,O=C(COc1ccccc1)Nc1cc(=O)[nH]c(=O)[nH]1,106%

# Reformatted: entries from further up
row | SMILES | host macrophage viability
2 | COc1ccc(NC(=O)c2ncoc2-c2ccc(OC)c(OC)c2)c(OC)n1 | 106%
3 | CN(C)S(=O)(=O)c1ccc(C(=O)NNC(=O)c2ccc3c(c2)CCCC3)cc1 | 105%
4 | O=C(NCC1COc2ccccc2O1)C(=O)c1cn(CC(=O)N2CCCCC2)c2ccccc12 (stereo unspecified) | 99.2%
5 | Clc1ccccc1-n1cc(-c2ccccc2)c2c(N3CCCCC3)ncnc21 | 120%
6 | COc1ccc(NC(=O)CSc2ncnc3ccccc23)cc1OC | 116 ± 3.9%
7 | CCOC(=O)c1cccc(NC(=O)CCCc2nc3cccnc3n2Cc2ccc(C)cc2)c1 | 98%
9 | CCc1nnc2ccc(C(=O)N3CCN(CC)CC3)cn12 | 131%
10 | CCn1c(=O)[nH]c2cc(-c3noc(COc4cccc(C)c4)n3)ccc21 | 116%
11 | CCCC(=O)N1CCN(c2c(C)n(C)c(=O)n(C)c2=O)CC1 | 131%
12 | Cc1ccc(S(=O)(=O)Nc2ccc(N3CCn4c(nc5ccccc54)C3)cc2C)cc1 | 142%
13 | Cn1c(=O)c2c(ncn2CC(=O)c2ccc([N+](=O)[O-])cc2)n(C)c1=O | 122%
15 | c1ccc(-c2oc3ncnc(N4CCN(Cc5ccc6c(c5)OCO6)CC4)c3c2-c2ccccc2)cc1 | 113%
16 | Cc1nn(-c2ccc(-c3noc(C4CC4)n3)cc2)cc1C(=O)N1CCn2c1nc1ccccc12 | 125%
17 | COc1cc([N+](=O)[O-])cc2sc(NC(=O)CSc3ccc(Cl)cc3)nc12 | 106%
19 | COc1cc(NC(=O)C2(C)CCCO2)ccc1NC(=O)CN1CCOCC1 (stereo unspecified) | 116%
20 | Cc1cc(-c2cn[nH]c2C2CCN(C(=O)c3ccncc3)CC2)on1 | 128%
21 | O=C(NC1CCCc2ccccc21)c1cc2n(n1)CCCN(Cc1ccccc1)C2=O (stereo unspecified) | 99.3%
22 | O=C(COc1ccccc1)Nc1cc(=O)[nH]c(=O)[nH]1 | 106%

# (further entries)

row,SMILES,host macrophage viability
1,O=C(c1ccco1)N1CCN(c2cc(=O)n(Cc3ccc(F)cc3)c(=O)[nH]2)CC1,119.2 ± 0.67%
2,Cn1c(=O)[nH]c(=O)c2c1nc(Br)n2Cc1ccc(F)cc1,104 ± 4.9%
3,O=C(CCn1c(=S)[nH]c2cc3c(cc2c1=O)OCO3)NCCc1ccc(Cl)cc1,128%
4,Cc1ccc(C(c2sc3ncnn3c2O)N2CCOCC2)cc1 (stereo unspecified),118%
5,CC1=C(C(=O)OCc2ccccc2)C(c2cccs2)C(C#N)=C(N)O1 (stereo unspecified),125%
6,C=CCOc1ccccc1NC(=O)Cn1c(=O)oc2cc(Cl)ccc21,95.8%
7,CC(=O)N1CCCc2ccc(NC(=O)C(=O)NCc3cccnc3)cc21,104%
8,CCc1nc(NCc2ccc(OC)cc2OC)c2onc(-c3ccccc3)c2n1,93.2%
9,Cc1ccnc(SCc2cc(=O)c(OC(=O)COc3ccc(F)cc3)co2)n1,116%
10,CCOCCn1c(SCc2c(F)cccc2Cl)nc2c1c(=O)[nH]c(=O)n2C,115%
11,Cc1ccc(NC2CC(=O)N(CCc3ccccc3)C2=O)cc1 (stereo unspecified),119%
12,COC(=O)c1ccc(CSc2ncnc3ccccc23)o1,106 ± 7.3%
13,CCC(Sc1ccc2nnc(-c3cccnc3)n2n1)C(=O)O (stereo unspecified),119%
14,O=C(N/N=C\c1ccco1)c1cc([N+](=O)[O-])cc([N+](=O)[O-])c1,103 ± 2.8%
15,O=c1[nH]c2cc3c(cc2c(=O)n1Cc1nc(-c2ccccc2Br)no1)OCO3,118%
16,CC(C)c1csc(-c2csc(S(=O)(=O)NCc3ccc4c(c3)OCO4)c2)n1,70.2%
17,Cc1nc(-c2csc(S(=O)(=O)NCc3ccccc3Cl)c2)sc1C,86.5%
18,Cc1cc2oc(C(=O)NCc3ccncc3)c(C)c2cc1C,113%
19,CSC1=C(C#N)C(c2ccco2)C(C(=O)Nc2ccccc2C)=C(C)N1 (stereo unspecified),126%
20,NC(=O)c1ccc(NC(=O)c2cn(Cc3cccc(F)c3)nc2OCc2cccc(F)c2)cc1,104%
21,Cc1ccc(Cn2nnc3c(SCC(=O)NCc4ccc5c(c4)OCO5)ncnc32)cc1,117 ± 13%
22,Nc1c(-c2nc(-c3ccncc3)no2)nnn1-c1ccccc1Cl,120%

row,SMILES,host macrophage viability
1,O=C(CCn1c(=O)sc2ccccc21)Nc1ccccc1F,118 ± 14%
2,COc1cccc(-c2nnc(SCC(=O)Nc3ccc(C(C)=O)cc3)n2-n2cccc2)c1,92.5%
3,Cc1n[nH]c(=O)nc1N/N=C/c1ccc(N(C)C)cc1,113%
4,O=C(Nc1ccccc1-n1cccc1)c1cnccn1,104%
5,COCCn1c(SCC(=O)Nc2cccc([N+](=O)[O-])c2)nc2c(c1=O)SCC2,124%
6,O=C(CS(=O)(=O)c1c[nH]c2ccccc12)N1CCc2ccccc21,124%
7,CCc1cccc2sc(N(Cc3ccccn3)C(=O)c3ccc(C#N)cc3)nc12,139%
8,CCOc1ccccc1NC(=O)CC1Sc2ccc(C(F)(F)F)cc2NC1=O (stereo unspecified),132%
9,Cc1ccc(Nc2nc(Nc3ccc4c(c3)OCO4)nc(N3CCOCC3)n2)cc1C,105%
10,COCCn1c2ccccc2n2c(=O)n(Cc3ccc(F)cc3)nc12,125%
11,Cc1ccc2c(c1)NC(SCC(=O)Nc1ccc(C)c(F)c1)=NS2(=O)=O,123%
12,Cc1ccnc(SCc2cc(=O)c(OC(=O)c3ccc(Br)o3)co2)n1,109%
13,Cn1c(=O)c2c(nc(CN3CCC(C(N)=O)CC3)n2Cc2ccccc2)n(C)c1=O,119%
14,CC1=C(C(=O)Nc2ccc(Cl)cc2)C(c2ccco2)C(C#N)=C(SCc2ccccc2)N1 (stereo unspecified),105%
15,CC(=O)c1cccc(N(C(=O)c2cnccn2)C(C(=O)NC2CCCC2)c2cccs2)c1 (stereo unspecified),105%
16,C=CCN1C(=O)/C(=C/c2ccco2)S/C1=N/c1nccs1,110%
17,CCOC(=O)N1CCN(C(=O)CCCn2c(=S)[nH]c3c([nH]c4ccc(OC)cc43)c2=O)CC1,98.3%
18,COc1cccc2c1Oc1nc(-c3ccccc3)[nH]c(=S)c1C2,122%
19,CCn1nc(-n2cnnc2)c(NS(=O)(=O)c2ccc(C3CCCCC3)cc2)c1C,109%
20,COc1ccccc1NC(=O)N1CCCC(C(=O)NCc2ccc(F)cc2)C1 (stereo unspecified),118%
21,Cc1cc2cc(CCNC(=O)c3ccc(S(=O)(=O)N4CCOCC4)cc3)c(=O)[nH]c2cc1C,135%
22,O=C(CSc1nc(-c2ccccc2Cl)ns1)Nc1ccc2c(c1)OCO2,108 ± 6.9%
